The list shows only some results of the screen, not a fair sample: it gathers tests that were run many times, whatever their T/C, doses with no T/C, and many T/C values between a quarter and a half above the control. Other doses and runs of a compound stand elsewhere. T/C is the treated group as % of the vehicle group. Some doses have a count of surviving animals in place of a T/C: the source holds a T/C of zero for them, seemingly a mark for toxic or unscored doses. Some survivor counts are full or nearly so, which does not show that the dose was tolerated: the source hardly ever lists a survival T/C far under the control, and the zero likely stands for such cases as well. Counts of survivors are from the toxicity check (mostly the fifth day) where no day follows; animals may have died later. Schedules are NCI's codes, read here as Q, the interval in days (D) or hours (H), X, the number of doses. Some schedule codes hold Z or #, which are not explained here. Some entries were tested several times; the values are given in rising order. For survival time, this PubChem deposit counts one and a half times the control or more as active, and values a quarter to a half above the control carry no call in these data; other NCI protocols may use other cut-offs.
System: L1210 leukemia ip in BDF1 mice, survival T/C
Assay: NCI In Vivo Anticancer Drug Screen. Data for tumor model L1210 Leukemia (intraperitoneal) in B6D2F1 (BDF1) mice
Settings: T/C endpoint: mean survival time, higher T/C = longer survival
[1] = dose: 200.0 mg/kg/injection, schedule: Q01DX001 (ip), vehicle: carboxymethylcellulose (CMC)
[2] = dose: 200.0 mg/kg/injection, schedule: Q04DX003 (ip), vehicle: saline
[3] = dose: 400.0 mg/kg/injection, schedule: Q04DX003 (ip), vehicle: saline
[4] = dose: 400.0 mg/kg/injection, schedule: Q01DX001 (ip), vehicle: saline
[5] = dose: 200.0 mg/kg/injection, schedule: Q04DX002 (ip), vehicle: Klucel (hydroxypropylcellulose) (HPC)
[6] = dose: 200.0 mg/kg/injection, schedule: Q01DX009 (ip), vehicle: saline with Tween-80
[7] = dose: 400.0 mg/kg/injection, schedule: Q01DX009 (ip), vehicle: saline with Tween-80
[8] = dose: 400.0 mg/kg/injection, schedule: Q04DX003 (ip), vehicle: saline with Tween-80
[9] = dose: 50.0 mg/kg/injection, schedule: Q01DX009 (ip), vehicle: Klucel (hydroxypropylcellulose) (HPC)
[10] = dose: 100.0 mg/kg/injection, schedule: Q04DX003 (ip), vehicle: Klucel (hydroxypropylcellulose) (HPC)
[11] = dose: 200.0 mg/kg/injection, schedule: Q04DX003 (ip), vehicle: Klucel (hydroxypropylcellulose) (HPC)
[12] = dose: 400.0 mg/kg/injection, schedule: Q04DX003 (ip), vehicle: Klucel (hydroxypropylcellulose) (HPC)
[13] = dose: 100.0 mg/kg/injection, schedule: Q01DX009 (ip), vehicle: Klucel (hydroxypropylcellulose) (HPC)

Cc1ccc(/C(=N\N=C(N)N)c2ccccc2)cc1
survivor count (dose: 120.0 mg/kg/injection, schedule: Q01DX Z (ip), vehicle: saline): 0 of 6
survivor count (dose: 120.0 mg/kg/injection, schedule: Q01DX Z (oral), vehicle: other): 6 of 6
survivor count (dose: 240.0 mg/kg/injection, schedule: Q01DX Z (oral), vehicle: other): 1 of 6

Nc1ncnc2c1ccn2C1CCCC1
survivor count [1]: 0 of 4

CN(N)P(=O)(c1ccccc1)N(C)N
survivor count (dose: 100.0 mg/kg/injection, schedule: Q01DX009 (ip), vehicle: saline): 2 of 6
survivor count [2]: 2 of 6
survivor count [3]: 0 of 6

COC(=O)/C(=C\c1ccccc1)CNC(C)(C)C
survivor count [4]: 0 of 3

CC(C)N(C)N=Nc1n[nH]nc1C(N)=O
T/C (dose: 100.0 mg/kg/injection, schedule: Q01DX Z (ip), vehicle: carboxymethylcellulose (CMC)): 136 % of control

CCC[CH2][Sn]([I])([CH2]C)[CH2]C
survivor count (dose: 12.5 mg/kg/injection, schedule: Q04DX002 (ip), vehicle: Klucel (hydroxypropylcellulose) (HPC)): 0 of 3
survivor count (dose: 25.0 mg/kg/injection, schedule: Q04DX002 (ip), vehicle: Klucel (hydroxypropylcellulose) (HPC)): 0 of 3
survivor count (dose: 50.0 mg/kg/injection, schedule: Q04DX002 (ip), vehicle: Klucel (hydroxypropylcellulose) (HPC)): 0 of 3 and 1 of 3
survivor count (dose: 100.0 mg/kg/injection, schedule: Q04DX002 (ip), vehicle: Klucel (hydroxypropylcellulose) (HPC)): 0 of 3
survivor count [5]: 0 of 3

CN(C)c1ccc(N(C)C)nn1
survivor count [6]: 0 of 6
survivor count [7]: 0 of 6

O=[N+]([O-])/C=C/c1ccc2ccccc2n1
survivor count (dose: 25.0 mg/kg/injection, schedule: Q01DX009 (ip), vehicle: saline with Tween-80): 6 of 6
survivor count (dose: 100.0 mg/kg/injection, schedule: Q01DX009 (ip), vehicle: saline with Tween-80): 0 of 6
survivor count [6]: 0 of 6
survivor count [8]: 1 of 6

Clc1cccc(C[P+](c2ccccc2)(c2ccccc2)c2ccccc2)c1
survivor count (dose: 12.5 mg/kg/injection, schedule: Q01DX009 (ip), vehicle: Klucel (hydroxypropylcellulose) (HPC)): 3 of 6
survivor count (dose: 25.0 mg/kg/injection, schedule: Q01DX009 (ip), vehicle: Klucel (hydroxypropylcellulose) (HPC)): 0 of 6
survivor count [9]: 0 of 6
survivor count (dose: 50.0 mg/kg/injection, schedule: Q04DX003 (ip), vehicle: Klucel (hydroxypropylcellulose) (HPC)): 0 of 6
survivor count [10]: 0 of 6
survivor count [11]: 0 of 6
survivor count [12]: 0 of 6

CC1(C)CC(=O)c2ccccc21
survivor count (dose: 400.0 mg/kg/injection, schedule: Q01DX009 (ip), vehicle: saline): 0 of 6

COc1ccc(/C=C/C(=O)c2cc(C(=O)O)c(OC)cc2OC)cc1OC
survivor count [7]: 3 of 6

Cc1cnc(SCc2ccc(F)cc2)nc1N(C)C
survivor count (dose: 200.0 mg/kg/injection, schedule: Q01DX Z (ip), vehicle: methylcellulose (MC)): 1 of 6

COc1cc2ccc(C(C)N)cc2cc1OC (configuration not stated)
survivor count [3]: 1 of 6

Nc1[nH]c(=O)cc(O)c1N
survivor count (dose: 50.0 mg/kg/injection, schedule: Q04DX003 (ip), vehicle: saline): 6 of 6
survivor count [2]: 0 of 6
survivor count [3]: 1 of 6

CC(C)C(CN)(CCN1CCCCC1)Cc1cccc2ccccc12 (configuration not stated)
survivor count (dose: 200.0 mg/kg/injection, schedule: Q04DX003 (ip), vehicle: saline with Tween-80): 1 of 6
survivor count [8]: 0 of 6

CC/C(=C\c1ccc(Cl)cc1)[N+](=O)[O-]
survivor count [13]: 5 of 6
survivor count [11]: 3 of 6 and 4 of 6
survivor count [12]: 1 of 6

O=[N+]([O-])c1ccc(/C=C2\c3ccccc3-c3nc4ccccc4nc32)cc1
survivor count (dose: 150.0 mg/kg/injection, schedule: Q01DX001 (ip), vehicle: saline): 6 of 6

CN(C(=O)c1ccccc1)N(C)C(=O)c1ccccc1
survivor count [13]: 3 of 6
survivor count [11]: 3 of 6

CCOC(=O)c1ccc(N(CCC(=O)CBr)C(C)=O)cc1
survivor count (dose: 80.0 mg/kg/injection, schedule: Q01DX001 (ip), vehicle: carboxymethylcellulose (CMC)): 0 of 4
survivor count (dose: 100.0 mg/kg/injection, schedule: Q01DX001 (ip), vehicle: carboxymethylcellulose (CMC)): 0 of 4
survivor count [1]: 0 of 4
survivor count (dose: 400.0 mg/kg/injection, schedule: Q01DX001 (ip), vehicle: carboxymethylcellulose (CMC)): 0 of 4

CC(=Nc1c2c(nc3ccccc13)CCCC2)N(C)C
survivor count [10]: 2 of 6
survivor count [11]: 0 of 6
survivor count [12]: 0 of 6

O=C1C(=O)C2(O)C(=O)C12O (configuration not stated)
survivor count [2]: 4 of 6
survivor count [3]: 2 of 6

CCCCCCCCCCCCCCCCS(=O)(=O)c1ccc(S(=O)(=O)F)cc1NC(=O)C(F)(F)F
survivor count [8]: 6 of 6

Cc1ccc([I+]c2ccc(C)c(C)c2C)c(C)c1C
survivor count (dose: 14.0 mg/kg/injection, schedule: Q01DX001 (ip), vehicle: acetone): 1 of 6
survivor count (dose: 35.0 mg/kg/injection, schedule: Q01DX001 (ip), vehicle: acetone): 2 of 6

NC(=S)N/N=C/c1ccc(Cl)s1
survivor count [5]: 3 of 3
survivor count (dose: 400.0 mg/kg/injection, schedule: Q04DX002 (ip), vehicle: Klucel (hydroxypropylcellulose) (HPC)): 3 of 3

COc1ccccc1C(CC(=O)c1ccccc1)Sc1ccccc1N (configuration not stated)
survivor count (dose: 200.0 mg/kg/injection, schedule: Q01DX005 (ip), vehicle: Klucel (hydroxypropylcellulose) (HPC)): 3 of 3

C[N+]1(CCCCCNC2=CC(=O)C(NCCCCC[N+]3(C)CCCCC3)=CC2=O)CCCCC1
survivor count (dose: 0.2 mg/kg/injection, schedule: Q01DX001 (ip), vehicle: saline): 0 of 6
survivor count (dose: 0.4 mg/kg/injection, schedule: Q01DX001 (ip), vehicle: saline): 1 of 6
survivor count (dose: 0.5 mg/kg/injection, schedule: Q01DX001 (ip), vehicle: saline): 1 of 6
survivor count (dose: 0.8 mg/kg/injection, schedule: Q01DX001 (ip), vehicle: saline): 0 of 6
survivor count (dose: 1.0 mg/kg/injection, schedule: Q01DX001 (ip), vehicle: saline): 0 of 6
survivor count (dose: 2.0 mg/kg/injection, schedule: Q01DX001 (ip), vehicle: saline): 0 of 6
survivor count (dose: 4.0 mg/kg/injection, schedule: Q01DX001 (ip), vehicle: saline): 0 of 6
survivor count (dose: 5.0 mg/kg/injection, schedule: Q01DX001 (ip), vehicle: saline): 0 of 6
survivor count (dose: 8.0 mg/kg/injection, schedule: Q01DX001 (ip), vehicle: saline): 0 of 6
survivor count (dose: 10.0 mg/kg/injection, schedule: Q01DX001 (ip), vehicle: saline): 0 of 6
survivor count (dose: 20.0 mg/kg/injection, schedule: Q01DX001 (ip), vehicle: saline): 0 of 6
survivor count (dose: 40.0 mg/kg/injection, schedule: Q01DX001 (ip), vehicle: saline): 0 of 6
survivor count (dose: 80.0 mg/kg/injection, schedule: Q01DX001 (ip), vehicle: saline): 0 of 6
survivor count (dose: 100.0 mg/kg/injection, schedule: Q01DX001 (ip), vehicle: saline): 0 of 6
survivor count (dose: 200.0 mg/kg/injection, schedule: Q01DX001 (ip), vehicle: saline): 0 of 6
survivor count [4]: 0 of 6

C/C(=N/NC(=O)C1CCCO1)c1ccc(C)cc1 (configuration not stated)
survivor count [9]: 4 of 6
survivor count [13]: 4 of 6
survivor count (dose: 200.0 mg/kg/injection, schedule: Q01DX009 (ip), vehicle: Klucel (hydroxypropylcellulose) (HPC)): 0 of 6
survivor count (dose: 400.0 mg/kg/injection, schedule: Q01DX009 (ip), vehicle: Klucel (hydroxypropylcellulose) (HPC)): 0 of 6

From PubChem BioAssay AID248 (DTP/NCI, 2004)
